Test results reported in article PMC10163288.
Some of the results follow.

B1: il2ra_site1_3nfp_normal_mot_HHH_b1_03420_af2_000000029_0001_41_57_H_._97e99672e168623ff83a69b38e8865de_0001_1_0001_0000300022_0000001_0_af2pred_0001_af2pred_1 (protein)
chain: SSEELLKEMVEFAVRRNNPKLLRRILEELERWLGDPEEAERVLKELIEEVLGDPEEAERLVEEAK
B2: il2ra_site2_3nfp_normal_mot_HHH_b1_07556_000000077_0001_42_55_H_._738ccc93aada9afe30a0d8950425dc90_0001_1_0001_0000100012_0000001_0_af2pred_0001_af2pred (protein)
chain: DVERELSRLARERNDPAVLRAKAIIRILKLRGVPPEEIEEIVEEIIKKAGLPPEIEELLREAVRE
B3: il2ra_site1_2b5i_normal_mot_HHH_b2_00256_000000050_0001_19_35_H_._HHH_b1_06795_0001_0000200025_0000001_0_af2pred_0001_af2pred (protein)
chain: SSSSSEEDRELVEFIFRLFAEFGLSSEQSKELAQLAAELLDKGVSVEEIKELLRELAEELSSSSS
B4: il2ra_site1_1z92_sap_20_mot_3afbd42359c492d9a5ba12d7e5b15de5_0001_000000167_0001_17_33_H_._HHH_b2_04511_0001_0000200005_0000001_0_0001 (protein)
chain: SSSSSDLEEFAQEVVERLVEELGLSEEDKEALERDAEMLVELGFSEKSLERALKWFAERNSSSSS
B5: il2ra_site2_3nfp_sap_16_mot_HHH_b1_08097_000000036_0001_22_39_H_._HHH_b1_03506_0001_0000100005_0000001_0_0001 (protein)
chain: SSSSSDEEERRVEELLEEAKHIEDEEERKEVLAEASQLAWELRNPELFFLVAEVLFKLEQSSSSS
B6: il2ra_site2_2erj_normal_mot_HHH_b1_03702_000000266_0001_38_56_H_._093f7d884af8442902c544b9c13aca27_0001_0001_0000200002_0000001_0_af2pred_0001_af2pred (protein)
chain: SVEEVVREAEERGELPPRVLRFAKAAIRMAKFAGSPPEFVAEAVEHAARRLGDEDLEELAEKLKK
B7: il2ra_site1_1z92_sap_13_mot_HHH_b2_08214_af2_000000088_0001_37_50_H_._HHH_b1_00873_0001_0000100005_0000001_0_0001_af2pred_0001_af2pred_1 (protein)
chain: SEEEEIEEKLRELGVPPELIKAIRRAFRHARENGIPPEQVRRALASALRFDDDPAAELALEALER
B8: il2ra_site1_1z92_sap_25_mot_HHH_b2_06555_af2_000000230_0001_23_40_H_._HHH_b1_06444_0001_0000100006_0000001_0_0001_af2pred_0001_af2pred_1 (protein)
chain: TSELIYELLELIARGEVPPEEIREIIEEIAERAGVPPEDVVRLLKALARQINNPEVERLLEEVLR
B9: il2ra_site1_2b5i_sap_14_mot_706564c13a40034bb3de594a58ae2d05_0001_af2_000000196_0001_37_51_H_._HEEHE_0610_0001_0000500035_0000001_0_0001_af2pred_0001_af2pred_1 (protein)
chain: SSSSDEVFHEVYELFSRASRLASNGNPEEARELLKEALEIAKESDNEKIREELEHMLKFISSSSS
B10: il2ra_site1_3nfp_normal_mot_971283e6576f4d06e1f80da1570dade3_0001_1_af2_000000065_0001_35_48_H_._8cb69178cb18ca82f70eade9eeca9cee_0001_0001_0000300035_0000001_0 (protein)
chain: DEELEEEVREVLGVPPEAAEAFVRAAKEDAGTPERAEKIVRLQLRYAKRDPRVRENLRLQAEALQ
B11: il2ra_site1_3nfp_normal_mot_HHH_b1_03420_af2_000000029_0001_41_57_H_._HHH_b2_06571_af2_0001_0000200007_0000001_0 (protein)
chain: SSSSDELQRAIELDKELLELRKRGDEEHAREVLEELKELAEEIGDELARRLVEEYEKFLRSSSSS

What follows are binders tested against il2ra, P01589 (assay: yeast display titration).

Apparent Kd, inactive:
B1 no binding seen
B2 no binding seen
B3 no binding seen
B4 no binding seen
B5 > 1150 nM
B6 no binding seen
B7 no binding seen
B8 no binding seen
B9 no binding seen
B10 > 770 nM
B11 no binding seen

Already shown: an excerpt of the list.
Apparent Kd, inactive:
B5 > 1150 nM
B6 no binding seen
